Assay results taken from PubChem BioAssay AID1794845 (National Center for Advancing Translational Sciences (NCATS), 2023).
The whole screen tested about 6,900 compounds, of which fewer than 10 were called active. Calls come from the whole dose curve; as a rule, active = well fitted curve in the direction sought with a large enough effect; inconclusive = small, poorly fitted or top-dose-only effect, or another doubt; inactive = no such curve, though single readings can be large or run the other way. The list shows a part of the results.

By UniProt entry, the sequences of proteins in these tests, tags left out. Where a name states a change or a piece, a line headed by the entry shows the natural chain unless it says otherwise.
UniProt C7C422: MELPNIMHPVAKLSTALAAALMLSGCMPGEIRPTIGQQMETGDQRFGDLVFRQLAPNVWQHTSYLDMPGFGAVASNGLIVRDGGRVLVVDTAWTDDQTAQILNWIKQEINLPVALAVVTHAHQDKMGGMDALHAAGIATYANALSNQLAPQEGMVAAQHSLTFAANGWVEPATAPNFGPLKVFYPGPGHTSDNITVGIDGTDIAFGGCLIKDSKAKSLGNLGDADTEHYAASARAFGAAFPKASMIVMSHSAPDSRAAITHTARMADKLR

Target: Metallo-beta-lactamase type 2 (Klebsiella pneumoniae) (UniProt C7C422)
Test: qHTS to identify inhibitors of the New Delhi Metallo-beta-lactamase (NDM): primary screen against the NCATS Gemini Collection; note: % of control where 0% means no effect
Conditions: NDM-1 enzyme, meropenem hydrolysis, absorbance 300 nm; at 38.4 µM (top of the series) unless noted
Method in brief: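 Meropenem hydrolysis (50 uM final) by 2 nM NDM-1 read as 300 nm absorbance after 30 min, following >30 min compound–enzyme preincubation in HEPES pH 7.0 with 1 uM ZnSO4 and 0.01% Tween20.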

Activity % (negative = inhibition), inactive:
CNC(=O)Nc1ccc(C)n(CC(=O)N2CCN(c3cc(C)ccc3C)CC2)c1=O 4.54%
Cn1nnnc1C1CCCN(C(=O)CCC2CCCC2)C1 (stereo not given) -3.83%
COc1ccc(CN2C(=O)[C@H](OC)[C@@H]2C2=CCN(C(=O)CC(C)C)CC2)cc1 15%
O=S(=O)(c1ccccc1C(F)(F)F)N1CC(c2nc(-c3ccncc3)no2)C1 -0.186%
CCN(CC)c1cc(CCC(=O)NCCCN2CCOCC2)ccn1 5.59%
CNC(=O)[C@@H](CC(C)C)N1CCC[C@H]1C(=O)NCCc1ccccn1 12.8% [at 57.5 µM]
O=C(N1CCC2(CCNCC2)CC1)C1(S(=O)(=O)c2ccccc2)CC1 12.6%
CN(C)Cc1cc(C[C@@H]2C[C@H](NCc3ccc(F)cc3)C2(C)C)no1 -10.5% [at 57.5 µM]
CC(=O)N1CCN(CC[C@H]2CN(C(=O)c3ccnc(Cl)c3)CC[C@H]2CC(=O)O)CC1 0.543%
CS(=O)(=O)N1CC2(CCCN(Cc3cccnc3)C2)Cc2ccccc21 (stereo not given) 1.09%
CC(=O)NCCNC(=O)C1CCCN(S(=O)(=O)c2ccccc2)CCC(=O)NCC1 (stereo not given) -4.87%
CNC(=O)C(C)N(C)C(=O)c1coc(CN2CCN(c3ccccc3F)CC2)n1 (stereo not given) 21.1%
COc1ccc(CN2CCCC3(CC(c4cccc(C(F)(F)F)c4)=NO3)C2)cc1 (stereo not given) 3.04%
CC1(C)C[C@H](NCC2CCCCC2)[C@@]2(CCC(=O)N3CCCC3)CC[C@](C)(O)C[C@@H]12 -2.59% [at 57.5 µM]
CCc1c(C)nn(CC(=O)N2CC(C)(C)[C@@](C)(O)C2)c1C 1.08%
CC(C)c1nc(CNC(=O)c2ccc(NC3CCCCC3)nc2)no1 15.4%
COc1ccc(-c2nn(-c3ccccc3)cc2CN2CCC(F)CC2)c(F)c1 -7.22%
CC1CCC(NC(=O)c2cc3n(n2)CC(c2ccc(Cl)cc2)OC3)CC1 (stereo not given) -0.96%
COC1CCOC2(CCN(S(=O)(=O)c3cn(C)cn3)CC2)C1 (stereo not given) -7.49%
CC(C)N1C[C@@H](F)[C@@H](OCc2nc3ccc(F)cc3[nH]2)C1 9.58% [at 57.5 µM]
O=C(Nc1ccccc1F)C1CN(C2CCCC2)C(=O)N1 (stereo not given) 1.82% [at 57.5 µM]
O=C(NCc1ccccc1Cn1cccn1)c1ccc2cccc(F)c2n1 9.12%
O=C(NCc1nnc2ccccn12)[C@H]1CNC[C@H](C(=O)N2CCOCC2)C1 7.37%
COc1cccc(CNC(=O)CCNc2cnc3cnccn23)c1 9.82%
CC(C)n1nccc1S(=O)(=O)N[C@@H]1[C@@H](Cc2ccccc2)[C@H]2OCC[C@@H]12 0.185%
CN(C)Cc1nnc(C2CCN(Cc3cnc(-c4ccccn4)nc3)CC2)n1C 0.518%
Cc1ccoc1C(=O)N1CC[C@@H]2CN(S(C)(=O)=O)[C@@H]2C1 -0.468%
O=C(NCc1nc(-c2ncccn2)no1)C1CCCN(Cc2ccco2)C1 (stereo not given) -0.87%
O=C1CCN(C(=O)Nc2ccccc2F)CCCC(C(=O)NCc2ccncc2)CCN1 (stereo not given) 5.3%
COCC(NC(=O)c1ccc2nc(C3CCCCC3)oc2c1)c1ccnn1C (stereo not given) -0.0037%
c1cc(-c2ccnc3nc(C4CCC4)nn23)ccn1 25%
O=C(Nc1ccc(F)cc1)c1cc2cccnn2n1 27.8% [at 57.5 µM]
O=C(O)CC[C@@H]1CN(C(=O)c2ccc(CO)o2)CC[C@@H]1N1CCOCC1 86.3%
COCCNC(=O)[C@H]1C[C@H](Oc2cccnc2)CN1S(=O)(=O)c1cn(C)cn1 6.1%
CN(CC1CCOC1)C(=O)c1cccs1 (stereo not given) -4.04%
Cc1ccc(CNC(=O)N2CCCC(CN3CCC(C)CC3)CC2)cc1 (stereo not given) -0.299%
CCCn1cc(C(=O)NCC2COc3cc(OC)ccc3C2)c(C)n1 (stereo not given) 0.463%
COc1ccc(Cl)cc1NC(=O)C1CN(S(C)(=O)=O)CC12CCCCC2 (stereo not given) 35.1%
CNC(=O)[C@@H]1C[C@@H](n2cc(CNC(=O)Nc3ccc(Cl)cc3C)nn2)CN1 19.6%
O=C(c1cc2ccccc2[nH]1)N1CCCC2(C1)NC(=O)N(Cc1ccccc1)C2=O (stereo not given) 3.64%
CNC(=O)c1cc(C2CC2)nc2c1c(C1CCCN([S+](=O)([O-])c3c(C)noc3C)C1)nn2C (stereo not given) 9.28%
O=C(C[C@@H]1C[C@H]2O[C@H](CNC3CCC(F)(F)CC3)[C@@H](O)[C@H]2O1)N1CCC(F)(F)C1 -3.07% [at 57.5 µM]
O=C(N1CCC(Cc2nc(-c3ccc(F)cc3)no2)CC1)C1(c2ccccc2)CC1 6.17%
Cc1cc(C(=O)N(C)CC2(C)CCOCC2)nn1C 1.6%
CC(C)C(=O)N1CCC2(CC1)OC(=O)N(Cc1ccccc1)C2(C)c1cccnc1 (stereo not given) -5.13% [at 57.5 µM]
COCC1CN(C(C)=O)CC12CCN(C(=O)C1CC=CC1)CC2 (stereo not given) 11.1%
Cc1nc(C)c(C(=O)N2CCC(N3C(=O)C4(CCCC4)C3c3scnc3C)CC2)s1 (stereo not given) 2.71%
Cc1cc(CN2C[C@@H](CO)[C@H](NC(=O)C3CCC3)C2)n(C)n1 -0.0151%
O=C(c1ccc(Cl)cc1)N1CCN(Cc2ccccc2-c2cccnc2)CC1 11.2%
O=C(NCC1CCN(Cc2ccccn2)C1)Nc1ccc(F)cc1 (stereo not given) 18.4%
N#Cc1ccc(O[C@@H]2COCC[C@H]2NC(=O)Cn2nnnc2N)cc1 1.45%
CN(Cc1cccn1C)C(=O)Nc1ccc(Cl)cc1 1.82% [at 57.5 µM]
Nc1nc(C2CC(O)C2)cc(N2CC(N3CCOCC3)C2)n1 (stereo not given) -0.153%
COCc1nn(CC(=O)NC(C)Cc2cc(C)[nH]n2)c(=O)n1-c1ccccc1 (stereo not given) 12.3%
CNC(=O)[C@@H]1C[C@@H](n2cc(CNC(=O)Cc3ccc(F)cc3)nn2)CN1 11%
CC(C)n1cc(C(=O)NCc2cccnc2Oc2ccc(F)cc2F)cn1 0.388%
Cc1noc2c(N3CCOCC3)cc(-c3cccs3)nc12 27.7% [at 57.5 µM]
CNC(=O)c1cccn2cncc12 9.62% [at 77.1 µM]
O=C(NC[C@H]1COCc2nc3cc(F)ccc3n21)C1CC1 -1.38% [at 77.1 µM]
Cn1nccc1CCC(=O)N1CCN(C(=O)C2CCC2)[C@@H]2CS(=O)(=O)C[C@@H]21 -1.48%
O=C(c1ccccc1)N1Cc2[nH]cnc2C[C@H]1c1nc(-c2ccc(Cl)cc2)no1 -11.8% [at 57.5 µM]
Cc1cc(C(=O)N2CC(F)(F)C[C@H]2c2nnc(C)o2)no1 -4.41%
CC(=O)N1CCN(C(=O)c2ccc3oc(-c4ccncc4Cl)nc3c2)CC1 42.2% [at 57.5 µM]
COc1ccccc1C(=O)N1CCC(C(=O)N2CCC(c3nc4ncccc4[nH]3)C2)CC1 (stereo not given) 11.3%
CN1CCOC[C@H]2CCN(C(=O)c3cccc4[nH]ccc34)C[C@H]21 3.15%
CC(C)(C)C(=O)NCCNC(=O)c1cccc(-c2ccc(C(F)(F)F)cc2)c1 -3.97%
COCc1nnc2n1CCC(NC(=O)CCc1c(C)noc1C)CC2 (stereo not given) 29.8%
OCCC#Cc1ccc(CN2CCC(CO)(Cc3ccccc3Cl)CC2)cc1 9.89%
Cn1nccc1CN1CC2(C1)C(=O)Nc1ccccc12 -0.928% [at 57.5 µM]
O=C(N1CCCC1)N1CCCC(c2nnc3n2CCNC3)C1 (stereo not given) 32.8%
Cc1[nH]nc(CCC(=O)N2CC[C@@H](NC(=O)c3cnccn3)[C@H](O)C2)c1C 8.34%
CN1C(=O)CCCCC1C(=O)NCCN1CCCCC1 (stereo not given) 5%
O=C(c1ccoc1)N1CCN(c2cc(C3CC3)ncn2)CC(O)C1 (stereo not given) 18.2%
CN(C)CCOCC1(C)COc2ccc(C(=O)Nc3ccc4[nH]ccc4c3)cc2N1 (stereo not given) 10.4% [at 57.5 µM]
O=C(N[C@H]1CO[C@H]2[C@@H]1OC[C@@H]2Nc1nccc(C2CCCC2)n1)c1ccco1 -0.239% [at 57.5 µM]
CCNC(=O)N1CCC(CCOC)(NS(=O)(=O)c2cccc3cccnc23)CC1 3.13%
O=C(c1ccccc1OC1CN(Cc2cccc(C(F)(F)F)c2)C1)N1CCOCC1 -5.65%
O=C([C@@H]1C[C@H](F)CN1C(=O)c1cccs1)N1CCOCC1 6.45%
COc1ccc(OCC2CN(c3ccc(OC)cc3)C(=O)c3ccc(C)nc3O2)cc1 (stereo not given) 34.9%
CNCC(=O)N1CCC(Cc2cccc(C(N)=O)c2)C1 (stereo not given) 11.1%
O=C(NC1CCCc2ccccc21)C1CN(C2CCCCC2)C(=O)N1 (stereo not given) 6.07% [at 57.5 µM]
Cc1cn2nc(C(=O)NCC(C)c3ccccc3)cc2c(N2CCSCC2)n1 (stereo not given) 5.29%
C[C@@H]1CN(C(=O)CCSCc2ccccc2)CC[C@@]1(O)C1CCOCC1 18.6%
COC(=O)CNC(=O)c1cc(-c2cnccc2Cl)c2cccn2n1 14.6%
O=[S+]([O-])(Nc1ccccc1)c1ccc2c(c1)OCCN(Cc1cncnc1)C2 37% [at 57.5 µM]

Three records picked at random from the list so far:
Activity % (negative = inhibition), inactive:
CNCC(=O)N1CCC(Cc2cccc(C(N)=O)c2)C1 (stereo not given) 11.1%
Cc1nc(C)c(C(=O)N2CCC(N3C(=O)C4(CCCC4)C3c3scnc3C)CC2)s1 (stereo not given) 2.71%
O=C([C@@H]1C[C@H](F)CN1C(=O)c1cccs1)N1CCOCC1 6.45%
